Measured values reported in paper PMC7026659.

Chains of the proteins cited; added tags and fusions are not shown. Lines headed by an entry give the natural chain unless they say otherwise; changes in a name come on top. Residues count along the entry.
UniProt P43351: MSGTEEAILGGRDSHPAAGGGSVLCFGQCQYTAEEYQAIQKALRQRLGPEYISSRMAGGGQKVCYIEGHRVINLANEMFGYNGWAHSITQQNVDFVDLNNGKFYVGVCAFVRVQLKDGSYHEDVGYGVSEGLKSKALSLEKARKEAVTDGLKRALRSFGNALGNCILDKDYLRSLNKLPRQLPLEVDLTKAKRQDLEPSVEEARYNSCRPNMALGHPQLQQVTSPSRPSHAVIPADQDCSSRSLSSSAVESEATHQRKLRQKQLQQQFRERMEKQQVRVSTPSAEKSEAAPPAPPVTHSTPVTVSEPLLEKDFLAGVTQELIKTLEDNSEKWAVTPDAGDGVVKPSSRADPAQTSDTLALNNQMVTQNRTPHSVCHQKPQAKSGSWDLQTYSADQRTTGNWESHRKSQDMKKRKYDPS
UniProt Q03468, 444-509: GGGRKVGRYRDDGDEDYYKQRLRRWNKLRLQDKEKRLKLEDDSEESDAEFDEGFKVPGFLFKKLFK
UniProt Q03468, 307-444: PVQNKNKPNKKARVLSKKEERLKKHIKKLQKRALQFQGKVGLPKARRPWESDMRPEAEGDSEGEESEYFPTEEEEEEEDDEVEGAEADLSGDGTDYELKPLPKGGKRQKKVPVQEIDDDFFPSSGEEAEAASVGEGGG
UniProt Q03468, 307-509: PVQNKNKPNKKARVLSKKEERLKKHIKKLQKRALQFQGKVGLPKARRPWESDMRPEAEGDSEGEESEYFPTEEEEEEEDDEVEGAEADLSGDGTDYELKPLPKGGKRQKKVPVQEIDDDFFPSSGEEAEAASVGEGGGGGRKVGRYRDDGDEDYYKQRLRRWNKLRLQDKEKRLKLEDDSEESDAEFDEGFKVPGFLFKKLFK

Columns and labels:
RAD52 WT (Homo sapiens) = RAD52 WT (Homo sapiens) (UniProt P43351); assay: EMSA; details: 1 mM Mg2+; EMSA (described for RAD52): 25 mM Tris-HCl pH 7.5, 1 mM MgCl2, 1 mM DTT, 50 ug/ml BSA, 50 mM NaCl, 15 min, 37 C, 6% PAGE-TBE at 4 C; recombinant protein; protein details: C-terminal 6xHis; label: 5'-maleimide-IR800 on oligo 1 (DNA); DNA:RNA hybrid
[1] = target: GST-CSB-ADC WT (Homo sapiens) (UniProt Q03468); assay: EMSA; details: EMSA (described for RAD52): 25 mM Tris-HCl pH 7.5, 1 mM MgCl2, 1 mM DTT, 50 ug/ml BSA, 50 mM NaCl, 15 min, 37 C, 6% PAGE-TBE at 4 C; recombinant protein; residues 444-509; protein details: GST; label: 5'-maleimide-IR800 on oligo 1 (DNA); DNA:RNA hybrid
GFP-CSB-ADN (AD-N) = GFP-CSB-ADN (AD-N) (UniProt Q03468); assay: pull-down; details: AD-C bound much more efficiently; pull-down: kit protein-RNA binding buffer, 15% glycerol, 30-60 min, 4 C; protein in a lysate after overexpression; residues 307-444; protein details: GFP (pEGFP-C1); DNA:RNA hybrid
[2] = target: GFP-CSB-AD (acidic domain) (UniProt Q03468); assay: pull-down; details: lower than AD-C; pull-down: kit protein-RNA binding buffer, 15% glycerol, 30-60 min, 4 C; protein in a lysate after overexpression; residues 307-509; protein details: GFP (pEGFP-C1); DNA:RNA hybrid
GFP-CSB-ADC (AD-C) = GFP-CSB-ADC (AD-C) (UniProt Q03468); assay: pull-down; details: pull-down: kit protein-RNA binding buffer, 15% glycerol, 30-60 min, 4 C; protein in a lysate after overexpression; residues 444-509; protein details: GFP (pEGFP-C1); DNA:RNA hybrid

“ATCATCACCATAACGTCGATGTATCAACTTCGATTAGTCACACCAATTAA / UUAAUUGGUGUGACUAAUCGAAGUUGAUACAUCGACGUUAUGGUGAUGAU [RNA-DNA hybrid (oligo 1/oligo 2)]”: binds (RAD52 WT (Homo sapiens)); binds [1].

“ATCATCACCATAACGTCGATGTATCAACTTCGATTAGTCACACCAATTAA / UUAAUUGGUGUGACUAAUCGAAGUUGAUACAUCGACGUUAUGGUGAUGAU [biotin-labeled DNA:RNA hybrid (pull-down)]”: binds more weakly (GFP-CSB-ADN (AD-N)); binds [2]; binds (GFP-CSB-ADC (AD-C)).

Construct, isoform or probe ends are uncertain for at least one entry. For some assays here: Where cells or extracts were used, other partners may take part. For some assays here: The comparison behind a weaker result is the experiment's own reference, which may not be listed here. For some assays here: At least one verdict was read from the data and is not stated in words by the source.
